# Source: PMC4657039 (Assay and Drug Development Technologies, 2014)
# Sequences of proteins named here, by UniProt entry; tags and fusion partners are left off. A change or cut given only in a name is not applied to a line headed by its entry.
# UniProt Q13936, whole entry: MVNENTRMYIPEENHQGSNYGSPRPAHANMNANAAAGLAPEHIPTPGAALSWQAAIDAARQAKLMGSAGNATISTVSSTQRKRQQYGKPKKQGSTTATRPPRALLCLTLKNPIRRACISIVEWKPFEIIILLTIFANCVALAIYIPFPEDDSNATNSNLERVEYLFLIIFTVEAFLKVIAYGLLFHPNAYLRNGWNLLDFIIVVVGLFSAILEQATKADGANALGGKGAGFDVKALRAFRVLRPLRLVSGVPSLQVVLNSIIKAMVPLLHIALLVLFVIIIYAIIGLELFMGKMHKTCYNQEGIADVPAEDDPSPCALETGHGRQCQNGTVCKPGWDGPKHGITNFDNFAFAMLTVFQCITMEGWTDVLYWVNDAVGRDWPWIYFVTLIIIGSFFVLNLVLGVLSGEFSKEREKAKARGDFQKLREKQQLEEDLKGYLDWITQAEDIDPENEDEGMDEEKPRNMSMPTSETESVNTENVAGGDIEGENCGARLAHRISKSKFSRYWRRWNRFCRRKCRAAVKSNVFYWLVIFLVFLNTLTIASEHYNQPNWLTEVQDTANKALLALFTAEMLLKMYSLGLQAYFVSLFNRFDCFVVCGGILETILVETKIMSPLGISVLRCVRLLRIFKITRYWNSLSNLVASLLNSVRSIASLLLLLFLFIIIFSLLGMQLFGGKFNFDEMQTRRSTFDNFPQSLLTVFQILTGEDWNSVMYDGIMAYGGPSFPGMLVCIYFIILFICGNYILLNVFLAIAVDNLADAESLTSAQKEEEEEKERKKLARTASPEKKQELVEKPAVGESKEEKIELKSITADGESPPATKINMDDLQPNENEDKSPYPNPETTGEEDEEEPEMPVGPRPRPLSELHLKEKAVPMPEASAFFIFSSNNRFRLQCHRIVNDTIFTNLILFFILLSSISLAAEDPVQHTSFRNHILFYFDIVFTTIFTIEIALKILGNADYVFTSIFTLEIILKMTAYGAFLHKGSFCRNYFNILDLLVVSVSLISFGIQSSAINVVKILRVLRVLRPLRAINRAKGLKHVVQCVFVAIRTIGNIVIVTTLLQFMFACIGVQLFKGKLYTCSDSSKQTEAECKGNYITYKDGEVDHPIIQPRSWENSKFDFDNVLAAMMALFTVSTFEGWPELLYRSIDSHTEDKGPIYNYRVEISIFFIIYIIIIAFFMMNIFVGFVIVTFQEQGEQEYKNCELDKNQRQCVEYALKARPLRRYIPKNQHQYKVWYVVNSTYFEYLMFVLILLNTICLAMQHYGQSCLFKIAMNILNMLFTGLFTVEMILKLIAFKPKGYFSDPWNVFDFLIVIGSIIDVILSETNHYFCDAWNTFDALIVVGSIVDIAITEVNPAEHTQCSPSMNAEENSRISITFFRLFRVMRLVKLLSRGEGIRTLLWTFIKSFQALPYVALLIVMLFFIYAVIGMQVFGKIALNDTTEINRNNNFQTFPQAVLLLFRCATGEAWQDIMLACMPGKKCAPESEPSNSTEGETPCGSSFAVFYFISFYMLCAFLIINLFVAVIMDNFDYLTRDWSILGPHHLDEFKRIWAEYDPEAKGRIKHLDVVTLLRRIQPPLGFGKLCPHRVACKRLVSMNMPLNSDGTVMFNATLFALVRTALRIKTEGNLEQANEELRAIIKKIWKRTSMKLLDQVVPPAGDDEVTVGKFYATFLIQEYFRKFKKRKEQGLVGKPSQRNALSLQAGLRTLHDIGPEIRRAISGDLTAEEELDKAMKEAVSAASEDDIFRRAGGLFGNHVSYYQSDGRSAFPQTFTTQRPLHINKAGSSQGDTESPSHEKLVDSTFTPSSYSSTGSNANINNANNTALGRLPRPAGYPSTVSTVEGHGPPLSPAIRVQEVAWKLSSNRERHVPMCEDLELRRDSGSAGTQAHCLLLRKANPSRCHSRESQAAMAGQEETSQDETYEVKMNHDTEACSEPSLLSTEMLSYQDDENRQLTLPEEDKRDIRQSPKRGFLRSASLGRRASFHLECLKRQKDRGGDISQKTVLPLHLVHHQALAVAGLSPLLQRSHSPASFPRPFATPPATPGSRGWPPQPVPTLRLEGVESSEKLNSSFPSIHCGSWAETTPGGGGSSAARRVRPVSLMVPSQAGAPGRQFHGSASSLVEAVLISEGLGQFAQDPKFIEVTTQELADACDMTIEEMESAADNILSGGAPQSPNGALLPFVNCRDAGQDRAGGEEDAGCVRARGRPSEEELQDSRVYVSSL
# What was measured:
# [1] = target: T1, human Cav1.2/β2/α2δ1 (Homo sapiens, UniProt Q13936); settings: two-test pulse protocol
# [2] = target: T1, human Cav1.2/β2/α2δ1; settings: 1 μM; test pulse 10 mV, holding −90 mV, 60-s CP to −50 mV
structure (smiles),measurement,setting,value
"COC(=O)C1=C(C)NC(C)=C(C(=O)OC)C1c1ccccc1[N+](=O)[O-] [Nifedipine, nifedipine]",use dependence of Cav1.2 inhibition,[1],no use dependence
same,effect on Cav1.2 currents,[2],completely blocked
